Reference: patent publication US20190185521A1
Results are given in words; binding and its absence hold for the method and conditions named. Some binding calls cover weakened binding; strength is not graded here.

Assays:
Assay in all cases: self-oligomerization: protoxin with SUV liposomes and trypsin, SDS-PAGE and western blot
[1] = biological target: Cyt1Aa (SEQ ID NO: 2) (Bacillus thuringiensis) (UniProt P0A382)
[2] = biological target: Cyt1Aa-A59C variant (SEQ ID NO: 4) (Bacillus thuringiensis) (UniProt P0A382)
[3] = biological target: Cyt1Aa-A61C variant (SEQ ID NO: 6) (Bacillus thuringiensis) (UniProt P0A382)

B1: Cyt1Aa (SEQ ID NO: 2) (protein)
chain: VEDPNEINNLLSINEIDNPNYILQAIMLANAFQNALVPTSTDFGDALRFSMPKGLEIANTITPMGAVVSYVDQNVTQTNNQVSVMINKVLEVLKTVLGVALSGSVIDQLTAAVTNTFTNLNTQKNEAWIFWGKETANQTNYTYNVLFAIQNAQTGGVMYCVPVGFEIKVSAVKEQVLFFTIQDSASYNVNIQSLK
[1]
  binding: binds

B2: Cyt1Aa-A59C variant (SEQ ID NO: 4) (protein)
chain: VEDPNEINNLLSINEIDNPNYILQAIMLCNAFQNALVPTSTDFGDALRFSMPKGLEIANTITPMGAVVSYVDQNVTQTNNQVSVMINKVLEVLKTVLGVALSGSVIDQLTAAVTNTFTNLNTQKNEAWIFWGKETANQTNYTYNVLFAIQNAQTGGVMYCVPVGFEIKVSAVKEQVLFFTIQDSASYNVNIQSLK
[2]
  binding: binds

B3: Cyt1Aa-A61C variant (SEQ ID NO: 6) (protein)
chain: VEDPNEINNLLSINEIDNPNYILQAIMLANCFQNALVPTSTDFGDALRFSMPKGLEIANTITPMGAVVSYVDQNVTQTNNQVSVMINKVLEVLKTVLGVALSGSVIDQLTAAVTNTFTNLNTQKNEAWIFWGKETANQTNYTYNVLFAIQNAQTGGVMYCVPVGFEIKVSAVKEQVLFFTIQDSASYNVNIQSLK
[3]
  binding: binds
